These are literature values, as cited in US10617722B2, “Honey-cannabinoid therapeutic composition” (Canna-B Cure Ltd, priority 2015, dated 2020).

As to `CCCCCc1cc(O)c2c(c1)OC(C)(C)[C@@H]1CCC(C)=C[C@@H]21` [THC, tetrahydrocannabinol], the solubility in water is 0.0028 gr/L.
